This is one part of the list. Residues, ends and D or L forms follow the SMILES beside them. *: point of attachment. Cbz = O=C(OCc1ccccc1)*
How the values were obtained:
Test in all cases: log2 fold change, soluble protein after heating vs DMSO (PISA); higher = thermal stabilisation; K562 cells, 10 uM, 30 min; active = over 0.2 and 3.5 SD of the protein, either way, in both replicates (recomputed)
[1] = compound: C1=CC2=NC=CN=C2C=C1/C=C/3\C(=O)NC(=O)S3
In short: (§1)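 Thermal stability values are relative to control samples and come from duplicates. They are expressed as log2 fold changes. For measurement, K562 cells (2×10^6 cells/mL) received 10 μM compound for 30 min, and aliquots were heated for 3 min over 48°C-58°C, pooled, and extracted at 4°C in PBS with 0.5% NP-40. Soluble protein, the supernatant after 21,000xg for 90 min, was quantified by TMTpro 16plex LC-MS/MS with equalised channel sums.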

Sequences of proteins named here, by UniProt entry; tags and fusion partners are left off. A change or cut given only in a name is not applied to a line headed by its entry.
UniProt Q9P1F3: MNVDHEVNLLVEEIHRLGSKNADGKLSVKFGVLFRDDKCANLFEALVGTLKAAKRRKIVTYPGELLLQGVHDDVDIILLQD
UniProt Q8TB40: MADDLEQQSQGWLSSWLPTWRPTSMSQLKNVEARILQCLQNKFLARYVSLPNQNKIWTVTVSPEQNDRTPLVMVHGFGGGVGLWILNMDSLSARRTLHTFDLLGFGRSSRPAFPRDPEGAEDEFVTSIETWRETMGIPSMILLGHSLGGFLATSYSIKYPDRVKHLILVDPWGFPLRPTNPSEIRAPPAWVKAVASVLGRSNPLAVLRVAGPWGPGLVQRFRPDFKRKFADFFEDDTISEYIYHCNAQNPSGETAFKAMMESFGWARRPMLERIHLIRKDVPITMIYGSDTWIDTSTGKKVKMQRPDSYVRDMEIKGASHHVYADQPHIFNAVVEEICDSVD
UniProt P14621: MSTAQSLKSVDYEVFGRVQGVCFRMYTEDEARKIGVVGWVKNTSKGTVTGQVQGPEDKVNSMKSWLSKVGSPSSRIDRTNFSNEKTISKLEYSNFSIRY
UniProt P80404: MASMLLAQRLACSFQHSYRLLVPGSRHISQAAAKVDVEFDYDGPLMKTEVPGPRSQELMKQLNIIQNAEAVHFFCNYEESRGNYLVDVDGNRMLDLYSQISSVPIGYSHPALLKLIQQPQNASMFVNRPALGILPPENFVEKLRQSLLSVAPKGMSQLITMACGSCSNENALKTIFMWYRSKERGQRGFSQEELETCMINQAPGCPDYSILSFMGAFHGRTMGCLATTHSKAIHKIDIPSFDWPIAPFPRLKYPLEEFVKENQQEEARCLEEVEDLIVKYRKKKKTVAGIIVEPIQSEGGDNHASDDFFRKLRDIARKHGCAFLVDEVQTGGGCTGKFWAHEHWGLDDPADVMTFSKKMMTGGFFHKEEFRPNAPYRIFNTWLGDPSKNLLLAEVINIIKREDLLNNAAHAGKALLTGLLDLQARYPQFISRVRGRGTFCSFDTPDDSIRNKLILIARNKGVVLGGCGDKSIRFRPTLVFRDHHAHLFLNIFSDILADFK
UniProt Q9BV23: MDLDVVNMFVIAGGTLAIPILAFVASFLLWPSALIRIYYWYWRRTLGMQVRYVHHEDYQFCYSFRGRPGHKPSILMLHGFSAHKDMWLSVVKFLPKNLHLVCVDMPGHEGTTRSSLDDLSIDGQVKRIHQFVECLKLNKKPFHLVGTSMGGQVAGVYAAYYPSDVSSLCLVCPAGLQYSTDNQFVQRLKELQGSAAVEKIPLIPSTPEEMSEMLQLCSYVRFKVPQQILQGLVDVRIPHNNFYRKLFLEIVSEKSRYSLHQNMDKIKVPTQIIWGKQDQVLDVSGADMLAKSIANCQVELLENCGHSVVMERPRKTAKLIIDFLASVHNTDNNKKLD
UniProt Q86V21: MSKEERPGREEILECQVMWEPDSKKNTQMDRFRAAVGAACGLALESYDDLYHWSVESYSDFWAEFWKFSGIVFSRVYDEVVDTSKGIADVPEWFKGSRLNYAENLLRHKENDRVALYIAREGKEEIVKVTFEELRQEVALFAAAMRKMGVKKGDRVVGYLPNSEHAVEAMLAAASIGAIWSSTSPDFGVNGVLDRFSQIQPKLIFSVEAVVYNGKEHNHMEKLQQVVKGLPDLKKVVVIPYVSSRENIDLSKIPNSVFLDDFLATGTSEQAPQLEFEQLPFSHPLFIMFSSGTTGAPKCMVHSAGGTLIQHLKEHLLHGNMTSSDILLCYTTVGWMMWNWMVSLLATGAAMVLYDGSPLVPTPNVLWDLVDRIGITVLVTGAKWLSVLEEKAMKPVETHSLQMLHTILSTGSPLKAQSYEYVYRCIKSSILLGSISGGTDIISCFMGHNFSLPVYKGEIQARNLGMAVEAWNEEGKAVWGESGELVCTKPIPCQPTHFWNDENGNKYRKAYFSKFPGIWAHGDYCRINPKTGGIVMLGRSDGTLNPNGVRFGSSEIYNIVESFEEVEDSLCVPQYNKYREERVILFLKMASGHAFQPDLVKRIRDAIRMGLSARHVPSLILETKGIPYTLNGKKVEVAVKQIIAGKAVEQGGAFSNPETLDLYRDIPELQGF
UniProt Q96QU6: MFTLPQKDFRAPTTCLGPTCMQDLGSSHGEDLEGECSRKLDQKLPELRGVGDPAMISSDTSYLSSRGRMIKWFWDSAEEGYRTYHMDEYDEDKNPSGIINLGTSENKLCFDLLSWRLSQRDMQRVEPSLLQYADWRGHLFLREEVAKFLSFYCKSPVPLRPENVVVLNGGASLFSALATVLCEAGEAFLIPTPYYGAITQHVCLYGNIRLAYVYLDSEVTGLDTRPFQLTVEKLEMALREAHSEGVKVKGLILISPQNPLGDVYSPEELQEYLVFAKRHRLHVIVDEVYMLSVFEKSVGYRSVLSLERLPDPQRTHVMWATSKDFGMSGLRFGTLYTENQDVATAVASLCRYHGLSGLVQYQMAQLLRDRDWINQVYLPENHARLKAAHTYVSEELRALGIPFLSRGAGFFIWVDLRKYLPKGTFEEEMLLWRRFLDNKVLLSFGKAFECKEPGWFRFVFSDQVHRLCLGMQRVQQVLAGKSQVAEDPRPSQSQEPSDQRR
UniProt Q96CM8: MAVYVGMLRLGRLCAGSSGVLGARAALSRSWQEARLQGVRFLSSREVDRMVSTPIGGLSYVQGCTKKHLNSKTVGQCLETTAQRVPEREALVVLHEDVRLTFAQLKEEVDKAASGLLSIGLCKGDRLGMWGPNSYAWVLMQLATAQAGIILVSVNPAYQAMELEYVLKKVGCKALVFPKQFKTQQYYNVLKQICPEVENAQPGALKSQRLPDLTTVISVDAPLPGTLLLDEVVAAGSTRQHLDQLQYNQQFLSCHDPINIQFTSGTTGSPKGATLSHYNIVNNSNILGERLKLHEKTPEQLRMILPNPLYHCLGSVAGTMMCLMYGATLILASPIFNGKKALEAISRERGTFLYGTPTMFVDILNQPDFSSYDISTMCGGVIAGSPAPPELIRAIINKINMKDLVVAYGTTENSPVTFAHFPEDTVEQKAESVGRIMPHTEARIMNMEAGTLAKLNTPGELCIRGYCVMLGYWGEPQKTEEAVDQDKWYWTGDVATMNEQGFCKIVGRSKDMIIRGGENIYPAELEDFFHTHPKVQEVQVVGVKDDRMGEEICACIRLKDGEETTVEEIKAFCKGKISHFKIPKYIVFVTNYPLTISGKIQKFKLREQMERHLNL
UniProt Q9BTE6: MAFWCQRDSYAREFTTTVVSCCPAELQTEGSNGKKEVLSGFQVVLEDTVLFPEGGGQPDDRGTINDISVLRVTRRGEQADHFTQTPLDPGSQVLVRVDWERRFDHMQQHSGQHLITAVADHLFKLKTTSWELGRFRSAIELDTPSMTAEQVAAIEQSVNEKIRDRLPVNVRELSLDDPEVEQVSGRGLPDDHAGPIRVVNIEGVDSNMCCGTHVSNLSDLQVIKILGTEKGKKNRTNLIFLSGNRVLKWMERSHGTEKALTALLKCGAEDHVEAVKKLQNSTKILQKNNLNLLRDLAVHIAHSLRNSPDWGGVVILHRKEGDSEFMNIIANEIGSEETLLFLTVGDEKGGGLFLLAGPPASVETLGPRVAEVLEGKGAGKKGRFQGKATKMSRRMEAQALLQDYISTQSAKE
UniProt Q8WU67: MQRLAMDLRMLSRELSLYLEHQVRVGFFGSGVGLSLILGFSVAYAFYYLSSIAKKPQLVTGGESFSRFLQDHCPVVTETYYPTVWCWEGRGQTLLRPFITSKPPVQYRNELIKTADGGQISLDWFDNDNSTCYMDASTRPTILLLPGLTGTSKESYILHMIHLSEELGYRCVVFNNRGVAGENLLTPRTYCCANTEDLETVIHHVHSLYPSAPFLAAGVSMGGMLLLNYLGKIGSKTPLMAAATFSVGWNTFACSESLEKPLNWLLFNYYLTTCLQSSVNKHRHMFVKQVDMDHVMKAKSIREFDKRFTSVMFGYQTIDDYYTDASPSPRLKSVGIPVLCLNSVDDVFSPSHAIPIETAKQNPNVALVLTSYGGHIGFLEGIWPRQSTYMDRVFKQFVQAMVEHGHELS
UniProt Q76LX8: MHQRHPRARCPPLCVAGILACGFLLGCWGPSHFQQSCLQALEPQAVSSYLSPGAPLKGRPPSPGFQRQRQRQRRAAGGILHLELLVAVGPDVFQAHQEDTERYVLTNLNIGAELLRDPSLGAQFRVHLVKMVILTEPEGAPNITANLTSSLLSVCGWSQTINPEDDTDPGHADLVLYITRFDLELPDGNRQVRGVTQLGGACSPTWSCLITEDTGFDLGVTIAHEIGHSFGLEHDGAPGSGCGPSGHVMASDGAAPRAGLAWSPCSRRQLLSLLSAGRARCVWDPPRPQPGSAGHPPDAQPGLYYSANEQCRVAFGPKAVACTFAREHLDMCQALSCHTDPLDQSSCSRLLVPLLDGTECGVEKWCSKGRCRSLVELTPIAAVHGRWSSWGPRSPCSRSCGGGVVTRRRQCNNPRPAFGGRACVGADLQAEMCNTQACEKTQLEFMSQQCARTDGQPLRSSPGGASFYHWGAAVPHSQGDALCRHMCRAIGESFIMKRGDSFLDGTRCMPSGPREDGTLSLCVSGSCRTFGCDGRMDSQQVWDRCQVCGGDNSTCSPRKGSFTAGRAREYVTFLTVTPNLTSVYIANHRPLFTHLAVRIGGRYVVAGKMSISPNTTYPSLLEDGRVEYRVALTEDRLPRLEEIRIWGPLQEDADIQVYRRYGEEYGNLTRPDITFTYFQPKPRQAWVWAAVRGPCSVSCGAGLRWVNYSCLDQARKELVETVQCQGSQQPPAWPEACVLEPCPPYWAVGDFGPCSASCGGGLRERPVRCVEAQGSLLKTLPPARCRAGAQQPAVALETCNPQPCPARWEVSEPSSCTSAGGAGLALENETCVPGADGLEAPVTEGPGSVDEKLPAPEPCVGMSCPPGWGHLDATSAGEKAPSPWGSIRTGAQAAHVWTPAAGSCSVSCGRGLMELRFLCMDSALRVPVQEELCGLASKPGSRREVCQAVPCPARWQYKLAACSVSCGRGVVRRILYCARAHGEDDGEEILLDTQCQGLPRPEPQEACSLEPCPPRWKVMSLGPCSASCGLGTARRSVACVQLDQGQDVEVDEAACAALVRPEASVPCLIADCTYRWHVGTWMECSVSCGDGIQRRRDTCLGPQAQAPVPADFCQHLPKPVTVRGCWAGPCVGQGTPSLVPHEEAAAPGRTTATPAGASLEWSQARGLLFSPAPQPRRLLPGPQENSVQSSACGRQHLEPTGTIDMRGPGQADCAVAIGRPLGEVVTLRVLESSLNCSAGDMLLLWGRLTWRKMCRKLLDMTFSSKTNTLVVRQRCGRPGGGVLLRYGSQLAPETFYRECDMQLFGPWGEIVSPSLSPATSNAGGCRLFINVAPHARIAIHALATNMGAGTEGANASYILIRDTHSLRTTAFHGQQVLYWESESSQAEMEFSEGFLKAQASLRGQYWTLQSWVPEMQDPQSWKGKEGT
UniProt Q9UNA0: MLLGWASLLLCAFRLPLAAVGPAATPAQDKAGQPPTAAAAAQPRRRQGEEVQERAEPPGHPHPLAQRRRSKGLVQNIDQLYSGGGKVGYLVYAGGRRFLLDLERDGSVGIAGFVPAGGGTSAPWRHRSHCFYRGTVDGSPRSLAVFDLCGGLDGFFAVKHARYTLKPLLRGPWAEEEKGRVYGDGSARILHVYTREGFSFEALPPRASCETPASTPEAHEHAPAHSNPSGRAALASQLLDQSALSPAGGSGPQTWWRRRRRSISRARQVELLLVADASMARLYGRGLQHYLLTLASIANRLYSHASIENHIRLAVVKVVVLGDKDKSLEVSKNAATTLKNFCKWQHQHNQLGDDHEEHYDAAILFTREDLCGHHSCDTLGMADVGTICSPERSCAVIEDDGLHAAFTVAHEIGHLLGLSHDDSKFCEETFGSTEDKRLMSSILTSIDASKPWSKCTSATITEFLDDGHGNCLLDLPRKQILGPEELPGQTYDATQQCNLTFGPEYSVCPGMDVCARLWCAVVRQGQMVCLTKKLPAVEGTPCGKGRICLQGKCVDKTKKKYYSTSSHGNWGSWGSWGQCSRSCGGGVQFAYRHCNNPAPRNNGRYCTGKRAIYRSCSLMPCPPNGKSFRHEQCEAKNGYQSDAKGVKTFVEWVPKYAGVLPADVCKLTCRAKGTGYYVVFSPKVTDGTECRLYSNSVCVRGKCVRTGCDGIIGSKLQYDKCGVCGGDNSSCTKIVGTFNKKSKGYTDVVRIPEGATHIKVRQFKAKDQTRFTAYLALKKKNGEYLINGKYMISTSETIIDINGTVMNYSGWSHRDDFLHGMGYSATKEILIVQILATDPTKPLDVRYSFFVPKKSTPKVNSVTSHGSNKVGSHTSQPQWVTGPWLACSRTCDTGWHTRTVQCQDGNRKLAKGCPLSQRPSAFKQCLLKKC
UniProt Q9NX38: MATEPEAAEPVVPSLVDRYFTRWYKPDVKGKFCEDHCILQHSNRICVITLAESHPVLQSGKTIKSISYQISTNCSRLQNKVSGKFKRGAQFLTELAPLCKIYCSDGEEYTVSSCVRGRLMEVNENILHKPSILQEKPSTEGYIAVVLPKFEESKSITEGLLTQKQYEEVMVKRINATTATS

[2] = compound: C1=CC=C(C=C1)C2=NC(=C(N2)C3=CC=NC=C3)C4=CC(=C(C=C4)Cl)O
In short: as §1

[3] = compound: C1COCCN1CCN2C3=CC=CC=C3N=C2NC(=O)C4=CC(=CC=C4)[N+](=O)[O-] [IRAK-1-4 Inhibitor I]
In short: as §1

[4] = compound: C=CC(=O)N1CCC[C@@H](n2nc(-c3ccc(Oc4ccccc4)cc3)c3c(N)ncnc32)C1 [ibrutinib]
In short: as §1

[5] = compound: CC(C)(C)Cn1c(N)nc2ccc(-c3[nH]c(C(C)(C)C)nc3-c3ccc(F)cc3)nc21 [ralimetinib]
In short: as §1

[6] = compound: CC(C)C[C@@H](C=O)NC(=O)[C@H](CC(C)C)NC(=O)[C@H](CC(C)C)NC(=O)OCc1ccccc1
In short: as §1

[7] = compound: CC(C)N(C[C@H]1O[C@@H](n2cnc3c(N)ncnc32)[C@H](O)[C@@H]1O)[C@H]1C[C@@H](CCc2nc3cc(C(C)(C)C)ccc3[nH]2)C1 [pinometostat]
In short: as §1

[8] = compound: CC1=C(C(CC(=O)N1)C2=CC=C(C=C2)C(F)(F)F)C(=O)NC3=C(C=C4C(=C3)C=NN4)F
In short: as §1

[9] = compound: C#Cc1cccc(Nc2ncnc3cc(OCCOC)c(OCCOC)cc23)c1 [erlotinib]
In short: as §1

[10] = compound: C1=CC(=C(C=C1Cl)C2=NC3=NC=CN=C3C(=N2)NC4=CC=NC=C4)F
In short: as §1

[11] = compound: C1=CC(=CC=C1C2=NC3=C(N2)C=C(C=C3)C(=O)N)OC4=CC=C(C=C4)Cl
In short: as §1

[12] = compound: CC(C)(O)CC(=O)NCCn1ccc2ncnc(Nc3ccc(Oc4cccc(C(F)(F)F)c4)c(Cl)c3)c21
In short: as §1

[13] = compound: CC(C)C1=C2N=C(C=C(N2N=C1)NCC3=CC=CC=C3)NCCCCCCN
In short: as §1

[14] = compound: C1CCN(C1)C(=O)NC2=CC=CC(=C2)NC3=NC=C(C(=N3)NCCC4=CN=CN4)Br
In short: as §1

[15] = compound: C1CN(CCC1(CC2=CC=C(C=C2)Cl)N)C3=NC=NC4=C3C=CN4
In short: as §1

[16] = compound: CC1=C(C2=C(C=C1)C(=O)C3=CC=CC=C3N2CCCN)C
In short: as §1

[17] = compound: C/C(=N\NC(=O)C1=CC(=CC=C1)S(=O)(=O)N2CCOCC2)/C3=C(C=CC(=C3)Cl)O
In short: as §1

[18] = compound: C1=CC2=C(C=CC(=C2)/C=C\3/C(=O)NC(=NCC4=CC=CS4)S3)N=C1
In short: as §1

[19] = compound: C1=CC=C2C(=C1)C3=NNC4=CC=CC(=C43)C2=O
In short: as §1

[20] = compound: CC(=O)c1cnc2ccc(-c3cc(Cl)c(O)c(Cl)c3)nc2c1N[C@H]1CC[C@H](CN(C)C)CC1
In short: as §1

Measured: log2 fold change

ABRACL (UniProt Q9P1F3)
inactive: [1] 0.161 | [2] 0.083 | [3] -0.01 | [4] 0.367 | [5] -0.017 | [6] -0.184 | [7] -0.074 | [8] 0.12

ABHD4 (UniProt Q8TB40)
inactive: [9] 0.16 | [10] -0.316 | [11] -0.247 | [1] -0.26 | [4] 0.524 | [12] 0.265 | [13] -0.225

ACYP2 (UniProt P14621)
inactive: [9] 0.081 | [11] 0.017 | [14] -0.072 | [15] 0.204 | [3] 0.009 | [13] -0.082 | [7] -0.027 | [8] 0.056 | [16] 0.125

ACTB, A0A2R8YEA7
inactive: [9] 0.289 | [17] 0.034 | [11] -0.01 | [18] -0.019 | [1] 0.174 | [2] 0.004 | [19] 0.024 | [14] -0.203 | [15] 0.209 | [4] 0.054 | [20] -0.024 | [5] -0.154 | [13] 0.162 | [6] -0.027 | [8] -0.115 | [16] -0.103

ACTB (UniProt E7EVS6)
inactive: [9] 0.256 | [11] -0.228 | [13] -0.102

ABCB11 (UniProt O95342)
inactive: [2] 0.079 | [14] 0.086 | [15] 0.086 | [5] -0.048 | [6] 0.036 | [16] 0.067

ADAM8 (UniProt P78325)
inactive: [9] 0.032 | [10] 0 | [11] 0.002 | [3] 0.021 | [12] -0.046 | [13] -0.103 | [7] 0.079

ABAT (UniProt P80404)
inactive: [10] 0.108 | [12] 0.185

ACTG1 (UniProt K7EM38)
inactive: [17] -0.21 | [10] 0.157 | [18] 0.343 | [2] 0.212 | [19] 0.272 | [14] 0.106 | [15] -0.204 | [3] 0.121 | [20] -0.102 | [5] -0.105 | [12] 0.024 | [6] 0.117 | [7] -0.02 | [16] -0.11

ABCA8 isoform 3 (UniProt O94911)
inactive: [9] 0.145 | [11] -0.075 | [1] -0.173 | [14] 0.217 | [15] 0.162 | [4] 0.359 | [13] 0.032 | [16] -0.059

ABHD6 (UniProt Q9BV23)
inactive: [2] 0.069 | [14] -0.25 | [15] -0.22 | [5] 0.23 | [6] -0.038 | [8] -0.342 | [16] 0.055

AACS (UniProt Q86V21)
inactive: [10] -0.176 | [2] -0.037 | [5] 0.136 | [12] -0.176 | [6] 0.229

ABCF1 (UniProt Q5STZ8)
inactive: [17] 0.075 | [18] -0.128 | [1] -0.08 | [19] -0.088 | [14] -0.061 | [15] 0.001 | [4] -0.145 | [20] 0.046 | [8] -0.072 | [16] 0.111

ACCS (UniProt Q96QU6)
inactive: [9] 0.132 | [10] 0.01 | [11] -0.038 | [1] -0.071 | [2] 0.11 | [14] -0.229 | [15] 0.096 | [4] 0.048 | [5] -0.076 | [12] -0.034 | [13] 0.089 | [6] 0 | [8] -0.03 | [16] 0.007

Two neighbouring entries already listed, for reference:
ABCF1 (UniProt Q5STZ8)
inactive: [17] 0.075 | [18] -0.128 | [1] -0.08 | [19] -0.088 | [14] -0.061 | [15] 0.001 | [4] -0.145 | [20] 0.046 | [8] -0.072 | [16] 0.111

ACCS (UniProt Q96QU6)
inactive: [9] 0.132 | [10] 0.01 | [11] -0.038 | [1] -0.071 | [2] 0.11 | [14] -0.229 | [15] 0.096 | [4] 0.048 | [5] -0.076 | [12] -0.034 | [13] 0.089 | [6] 0 | [8] -0.03 | [16] 0.007

Additional entries:

ABCB1 (UniProt P08183)
inactive: [17] -0.476 | [18] 0.112 | [19] -0.128 | [14] 0.008 | [15] -0.005 | [3] 0.195 | [20] -0.021 | [7] 0.088 | [16] -0.016

ACSF2 isoform 2 (UniProt Q96CM8)
inactive: [9] 0.282 | [11] -0.163 | [2] 0.135 | [5] -0.314 | [13] 0.024 | [6] 0.103

AARSD1 (UniProt Q9BTE6)
inactive: [9] 0.131 | [17] -0.415 | [11] 0.054 | [18] -0.063 | [1] -0.117 | [19] 0.197 | [3] 0.264 | [4] 0.135 | [20] 0.107 | [13] -0.13 | [7] 0.041

ACTG1 (UniProt I3L4N8)
inactive: [9] -0.176 | [11] -0.2 | [2] 0.108 | [5] -0.161 | [13] 0.11 | [6] -0.198 | [8] 0.146

AASDH (UniProt Q4L235)
inactive: [9] 0.113 | [10] 0.037 | [11] 0.048 | [1] 0.158 | [2] 0.003 | [14] -0.058 | [15] 0.034 | [3] 0.037 | [4] -0.308 | [5] -0.011 | [12] -0.15 | [13] -0.107 | [6] -0.066 | [7] 0.038 | [16] -0.184

ACTR3B (UniProt Q9P1U1)
inactive: [9] -0.033 | [11] 0.073 | [2] -0.078 | [14] -0.012 | [15] 0.145 | [3] -0.04 | [5] -0.071 | [13] 0.181 | [6] 0.056 | [7] -0.081 | [16] -0.016

ABHD3 (UniProt Q8WU67)
inactive: [9] 0.291 | [11] -0.127 | [13] -0.078

ADAMTS13 (UniProt Q76LX8)
inactive: [17] -0.078 | [10] 0.192 | [18] -0.043 | [19] -0.174 | [20] 0.139 | [12] 0.12

ADAMTS5 (UniProt Q9UNA0)
inactive: [9] 0.186 | [11] -0.124 | [18] 0.171 | [1] 0.012 | [2] 0.072 | [19] 0.043 | [14] -0.06 | [15] 0.113 | [3] 0.064 | [4] 0.127 | [20] 0.036 | [5] 0.141 | [13] 0.088 | [6] -0.009 | [7] -0.03 | [16] 0.025
active: [17] -0.518

ADAD1 (UniProt Q96M93)
inactive: [9] 0.205 | [11] 0.01 | [1] 0.031 | [2] -0.405 | [14] 0.094 | [15] -0.025 | [3] -0.01 | [4] -0.136 | [5] -0.332 | [13] -0.197 | [6] 0.068 | [7] 0.013 | [8] 0.073 | [16] 0.069

ABITRAM (UniProt Q9NX38)
inactive: [17] 0.084 | [10] 0.029 | [18] 0.018 | [1] 0.023 | [2] -0.05 | [19] 0.034 | [14] -0.037 | [15] 0.018 | [3] 0.041 | [4] 0.005 | [20] -0.073 | [5] -0.088 | [12] -0.008 | [6] 0.016 | [7] -0.025 | [16] 0.001

ACOT7 (UniProt K7EKP8)
inactive: [17] -0.176 | [18] 0.09 | [19] 0.03 | [20] -0.148

ACAA2 (UniProt K7ER88)
inactive: [17] 0.2 | [10] 0.13 | [18] -0.083 | [1] 0.261 | [19] 0.013 | [4] -0.115 | [20] -0.358 | [12] -0.049 | [8] 0.038

ABL2 (UniProt P42684)
inactive: [10] -0.194 | [1] 0.101 | [2] -0.061 | [14] -0.095 | [15] -0.176 | [3] -0.157 | [4] 0.199 | [5] 0.008 | [12] -0.299 | [6] 0.131 | [7] 0.195 | [16] 0.11

ABCB4 (UniProt P21439)
inactive: [9] 0.164 | [17] -0.069 | [11] 0.046 | [18] 0.025 | [2] -0.011 | [19] -0.065 | [14] -0.071 | [15] 0.066 | [20] -0.324 | [5] 0.025 | [13] -0.036 | [6] 0.021 | [16] 0.07

ABCB5 (UniProt Q2M3G0)
inactive: [9] 0.023 | [11] 0.005 | [1] -0.069 | [4] 0.082 | [13] 0.026 | [8] -0.137

ABCA2 isoform 3 (UniProt Q9BZC7)
inactive: [1] -0.224 | [2] -0.107 | [3] 0.007 | [4] -0.057 | [5] -0.099 | [6] -0.004 | [7] 0.022

Source: the supplement of paper PMC10849652
